Assay results from publication PMC3546006.
Results are given in words; binding and its absence hold for the method and conditions named. In cells and extracts the contact can be indirect. Some entries that bind do so weakly or less than the wild type.

By UniProt entry, the sequences of proteins in these tests, tags left out.
UniProt Q02111: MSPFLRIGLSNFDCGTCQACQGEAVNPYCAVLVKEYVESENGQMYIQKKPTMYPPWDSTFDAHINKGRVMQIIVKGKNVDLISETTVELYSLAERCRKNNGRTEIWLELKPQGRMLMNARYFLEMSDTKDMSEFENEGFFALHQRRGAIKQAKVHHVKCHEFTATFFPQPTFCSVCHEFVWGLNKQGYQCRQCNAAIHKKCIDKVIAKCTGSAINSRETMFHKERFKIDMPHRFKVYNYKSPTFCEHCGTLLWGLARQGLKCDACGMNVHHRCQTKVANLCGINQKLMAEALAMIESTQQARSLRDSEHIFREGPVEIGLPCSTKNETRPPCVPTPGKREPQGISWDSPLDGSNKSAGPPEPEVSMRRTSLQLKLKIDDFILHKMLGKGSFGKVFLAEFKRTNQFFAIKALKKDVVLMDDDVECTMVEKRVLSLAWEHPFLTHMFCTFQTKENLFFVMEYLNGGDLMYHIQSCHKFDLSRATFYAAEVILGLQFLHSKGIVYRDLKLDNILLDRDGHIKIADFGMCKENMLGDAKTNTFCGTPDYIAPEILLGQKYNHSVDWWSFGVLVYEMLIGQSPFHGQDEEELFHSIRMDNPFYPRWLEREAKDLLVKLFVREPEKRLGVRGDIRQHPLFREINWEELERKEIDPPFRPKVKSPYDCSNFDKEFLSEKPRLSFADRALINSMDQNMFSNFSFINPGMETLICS

Biological target: T1, CYLD (endogenous, primary mouse CD3+ T cells) (mouse (endogenous in primary CD3+ T cells)) (UniProt Q80TQ2)
T1 sequence: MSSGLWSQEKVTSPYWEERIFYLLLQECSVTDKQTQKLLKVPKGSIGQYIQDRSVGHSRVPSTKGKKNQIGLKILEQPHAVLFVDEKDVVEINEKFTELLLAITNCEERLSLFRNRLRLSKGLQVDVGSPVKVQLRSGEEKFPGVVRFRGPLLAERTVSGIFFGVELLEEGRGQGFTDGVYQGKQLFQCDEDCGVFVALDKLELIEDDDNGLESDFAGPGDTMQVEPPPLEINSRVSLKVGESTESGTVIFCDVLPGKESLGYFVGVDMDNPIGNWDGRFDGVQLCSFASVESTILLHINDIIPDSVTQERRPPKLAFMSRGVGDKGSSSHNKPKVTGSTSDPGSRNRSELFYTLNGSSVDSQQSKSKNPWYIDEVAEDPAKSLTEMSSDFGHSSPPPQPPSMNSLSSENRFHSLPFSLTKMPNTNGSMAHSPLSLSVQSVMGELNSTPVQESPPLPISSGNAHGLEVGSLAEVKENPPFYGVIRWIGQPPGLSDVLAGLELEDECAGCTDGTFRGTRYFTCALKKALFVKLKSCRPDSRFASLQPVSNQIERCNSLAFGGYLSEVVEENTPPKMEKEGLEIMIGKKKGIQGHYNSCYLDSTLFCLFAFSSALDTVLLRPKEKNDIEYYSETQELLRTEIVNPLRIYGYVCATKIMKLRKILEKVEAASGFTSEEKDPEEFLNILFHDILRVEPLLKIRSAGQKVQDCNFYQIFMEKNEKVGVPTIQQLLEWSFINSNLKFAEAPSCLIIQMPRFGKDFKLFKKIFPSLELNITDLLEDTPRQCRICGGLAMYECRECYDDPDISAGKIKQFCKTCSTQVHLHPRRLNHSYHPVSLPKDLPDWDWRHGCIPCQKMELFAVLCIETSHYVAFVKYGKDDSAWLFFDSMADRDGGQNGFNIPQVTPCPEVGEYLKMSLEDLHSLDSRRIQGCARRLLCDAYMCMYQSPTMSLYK
Assay: co-IP; endogenous proteins from lysates of unstimulated and CD3/CD28-activated primary mouse CD3+ T cells; 1% NP-40, 150 mM NaCl, 50 mM Tris pH 7.4, 5 mM EDTA; 4°C overnight, protein G Sepharose

For “PKCθ (endogenous, primary mouse CD3+ T cells) (from UniProt Q02111 1-707)”, the binding was “binds”.
